Experimental data published in PubChem BioAssay AID504444 (National Center for Advancing Translational Sciences (NCATS), 2011).
About 7,500 (2.1%) of roughly 360,000 compounds were called active. This list was built around the results that the source calls inconclusive (neither active nor inactive); the mix of calls is not that of the screen. Calls come from the whole dose curve; as a rule, active = well fitted inhibition curve with a large enough effect; inconclusive = small, poorly fitted or top-dose-only effect, or effect the other way; inactive = flat fitted curve, though single readings scatter. Potencies of inconclusive entries are doubtful fits and often do not repeat.

assay: Nrf2 qHTS screen for inhibitors; settings: A549 ARE-Fluc reporter, luciferase luminescence, 18-24 h; activity change, negative = inhibition: at 46 µM (top of the series); note: nearly all actives have a fitted effect of over 60% in size
Method in brief: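 Nrf2 function is reported as luminescence of an ARE-controlled luciferase in A549 cells. Compounds were tested at several concentrations, and a CellTiter-Fluor read on the same wells flagged cytotoxicity.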
% is set by controls: 0 for no effect and ±100 for the full control effect; potency is the fitted concentration of half-maximal effect.

| Structure (SMILES) | Potency | activity change, negative = inhibition |
| --- | --- | --- |
| Cc1cc(NCCCn2ccnc2)n2ncc(-c3ccccc3)c2n1 | inconclusive: 0.259 µM [activator, full curve] |  |
| Cc1ccc(-n2c(-c3ccc(Br)cc3)c[n+]3c2CCc2ccc4cccnc4c2-3)cc1 | active: 2.91 µM |  |
| COc1ccc(-c2[nH]nc3nc(-c4cc(Br)ccc4OC)cc(C(=O)O)c23)cc1 | inconclusive: 20.6 µM [activator, partial curve] |  |
| O=C(Nc1cccc2ccccc12)c1onc2c1CCCC2 | inconclusive: 4.11 µM [activator, full curve] |  |
| COc1ccc(-c2cc(C(=O)N3CCN(c4ccc(F)cc4)CC3)no2)cc1 | inconclusive: 29.1 µM [falling, single point] |  |
| Cc1cc2n(c(=O)c1C#N)CCCN2c1cccc(Cl)c1 | inconclusive: 29.1 µM [falling, single point] |  |
| CCOC(=O)c1oc2ccccc2c1NC(=O)c1ccccc1OC | inconclusive: 14.6 µM [falling, partial curve, poor fit] |  |
| CCOc1ccc(S(=O)(=O)NCc2ccc(C)cc2)c2cccnc12 |  | inactive: 7.04% |
| Cc1ccc(NC(=O)C2CCN(S(=O)(=O)c3ccc4c(c3)NC(=O)C(C)S4)CC2)cc1C (stereo unspecified) | inconclusive: 18.4 µM [falling, single point] |  |
| CCOCCCNC(=O)c1cc(=O)n(Cc2cccc(C)c2)c2ccccc12 |  | inactive: 4.08% |
| Cc1cccc(-n2c(SCc3ccc(C#N)cc3)nnc2-c2c[nH]c3ccccc23)c1 | inconclusive: 23.1 µM [falling, partial curve, poor fit] |  |
| COc1ccc(C(=O)NCc2nnc(SCC(=O)N3CCCC3)o2)cc1 |  | inactive: 3.2% |
| O=C(Nc1cccc(-c2csc(Nc3cccc(C(F)(F)F)c3)n2)c1)c1cc([N+](=O)[O-])cc(C(F)(F)F)c1 | inconclusive: 25.9 µM [falling, single point] |  |
| COc1ccc2nc3ccccc3[n+]([O-])c2c1 | inconclusive: 6.51 µM [activator, single point] |  |
| O=C(c1cnc(N2CCN(c3ncccn3)CC2)c2ccccc12)N1CCN(c2ncccn2)CC1 | inconclusive: 29.1 µM [falling, single point] |  |
| O=S1(=O)c2ccccc2N(Cc2cccc(F)c2)c2ccccc21 | inconclusive: 29.1 µM [falling, single point] |  |
| Cc1ccc2oc(C(=O)N(C)CCC(O)c3ccccc3)c(C)c2c1 (stereo unspecified) |  | inactive: 29.8% |
| Cc1cccc(N2CCN(C(=O)c3ccc(S(=O)(=O)N(C)c4ccccc4)cc3)CC2)c1C | inconclusive: 25.9 µM [falling, single point] |  |
| CCOc1cc(N2CCOCC2)c(OCC)cc1NC(=O)c1cc(C)cc(C)c1 | inconclusive: 13 µM [falling, partial curve] |  |
| CCCN(CC(=O)Nc1cc(Cl)ccc1Cl)C(=O)c1ccc(N2CCCC2=O)cc1 |  | inactive: -25.9% |
| O=C(c1ccc(F)cc1)C1CCN(C(=O)NCc2ccccc2)CC1 | inconclusive: 14.6 µM [falling, single point] |  |

| Structure (SMILES) | Potency | activity change, negative = inhibition |
| --- | --- | --- |
| Cc1ccc(NC(=O)c2ccncc2)cc1S(=O)(=O)N(C)C |  | inactive: 3.31% |
| Cc1c(C2(O)CCCCC2)[nH]c2cc(C(F)(F)F)ccc12 | inconclusive: 29.1 µM [falling, single point] |  |
| CC(C)(C)c1ccc(O)c(N=Cc2cc3c(cc2[N+](=O)[O-])OCO3)c1 | inconclusive: 8.2 µM [activator, partial curve, poor fit] |  |
| O=C(c1cc(COc2c(F)cccc2F)on1)N1CCN(C2CCCCC2)CC1 | inconclusive: 0.731 µM [falling, full curve, poor fit] |  |
| COc1ccc2c(c1)OC(O)(C(F)(F)C(F)F)CC2=O (stereo unspecified) | inconclusive: 18.4 µM [falling, partial curve, poor fit] |  |
| O=C(COc1ccc2ccccc2c1CN1CCOCC1)N1CCc2ccccc21 |  | inactive: -0.113% |
| CCCC(c1nnnn1C(C)(C)CC)N(Cc1ccco1)Cc1cc2ccc(OC)cc2[nH]c1=O (stereo unspecified) | inconclusive: 23.1 µM [falling, single point] |  |
| Oc1ccc(/C=N/Nc2nc(-c3ccc(Cl)cc3)cc(C(F)(F)F)n2)cc1 | active: 16.4 µM |  |
| Cc1ccc2[nH]c(=O)c(C3C(C#N)=C(N)Oc4c3ccc3cccnc43)cc2c1 (stereo unspecified) | inconclusive: 20.6 µM [falling, single point] |  |
| COc1ccc(/C=N/NC(=S)Nc2cccc(C(=O)O)c2)cc1OC | inconclusive: 20.6 µM [falling, partial curve] |  |
| COc1ccc([C@H]2CC(=O)C=C(c3ccc4c(c3)OCCO4)C2)cc1 | inconclusive: 18.4 µM [activator, partial curve, poor fit] |  |
| Cc1ccc(-c2nc(S(=O)(=O)c3ccc(C)cc3)c(SCC(N)=O)o2)cc1 | inconclusive: 20.6 µM [falling, single point] |  |
| Cc1c2cnn(-c3ccccc3)c(=O)c2c(C)n1C(C)C(=O)Nc1ccccc1C(F)(F)F (stereo unspecified) | inconclusive: 32.6 µM [falling, single point] |  |
| Cc1cccc2sc(N(CCCN(C)C)C(=O)CCc3ccccc3)nc12 | inconclusive: 18.4 µM [falling, single point] |  |
| O=[N+]([O-])c1cc(/C=N\Nc2ccccn2)ccc1Cl | inconclusive: 18.4 µM [activator, single point] |  |
| Cc1ccccc1Cn1c(-c2cncs2)nc2ccccc21 | inconclusive: 13 µM [activator, partial curve, poor fit] |  |
| O=C1C2C3C=CC(O3)C2C(=O)N1N=Cc1cccc2ccccc12 (stereo unspecified) | inconclusive: 20.6 µM [activator, partial curve] |  |
| O=C(NNC(=S)Nc1ccccc1Cl)c1ccncc1 | inconclusive: 7.31 µM [activator, partial curve] |  |
| COc1ccc(CCN2C(=O)N(c3cccc(C)c3)C(=O)C2CC(=O)Nc2ccccc2)cc1OC (stereo unspecified) |  | inactive: -14.6% |
| O=S(=O)(c1ccc(F)cc1)N1CCC(Oc2cccc(C(F)(F)F)c2)CC1 |  | inactive: 4.57% |
| Cc1ccc(OCCC(=O)OCC(=O)NC2CCS(=O)(=O)C2)cc1 (stereo unspecified) |  | inactive: 6.4% |
| COc1cc2c(cc1OC)CN(c1ccc(C(N)=O)cc1[N+](=O)[O-])CC2 | inconclusive: 10.3 µM [falling, partial curve] |  |

| Structure (SMILES) | Potency | activity change, negative = inhibition |
| --- | --- | --- |
| O=C(CCCc1ccccc1)NC12CC3CC(CC(C3)C1)C2 | inconclusive: 8.2 µM [activator, partial curve] |  |
| O=C(COC(=O)Cc1ccc(F)cc1)Nc1ccc(Cl)cn1 | inconclusive: 3.66 µM [falling, partial curve, poor fit] |  |
| COc1ccccc1S(=O)(=O)Nc1ccc(-c2nnc3n2CCCCC3)cc1 |  | inactive: 11.5% |
| CCN(CC)C(=O)Cn1cc(C(=O)C(=O)NCC2COc3ccccc3O2)c2ccccc21 (stereo unspecified) |  | inactive: 8.02% |
| O=C(CNc1cc(S(=O)(=O)N2CCCC2)ccc1OCC(F)(F)F)Nc1cccc(C(F)(F)F)c1 | active: 7.31 µM |  |
| CC(=O)N1N=C(c2ccc(C)cc2)OC1c1ccc(Br)cc1 (stereo unspecified) | inconclusive: 6.51 µM [activator, partial curve] |  |
| C=CCOc1ccc(CNc2nccs2)cc1 | inconclusive: 3.66 µM [activator, partial curve] |  |
| Cc1c(N2C(=O)/C(=C\c3cccc4ccccc34)SC2=S)c(=O)n(-c2ccccc2)n1C | inconclusive: 25.9 µM [falling, single point] |  |
| COc1ccc(CCNC(=O)CCCn2c(=O)c3ccccc3n(Cc3ccccc3)c2=O)cc1OC | inconclusive: 18.4 µM [falling, partial curve, poor fit] |  |
| CCOc1cc(NC(=O)CCl)c(OCC)cc1NC(=O)CCl | inconclusive: 6.51 µM [falling, single point] |  |
| O=C(c1ccc(-c2ccccc2Cl)o1)N1CCN(S(=O)(=O)c2cccs2)CC1 | inconclusive: 23.1 µM [falling, single point] |  |
| CCOC(=O)C(=CNc1nc(-c2ccc3ccccc3c2)cs1)C(=O)OCC | inconclusive: 16.4 µM [activator, partial curve] |  |
| CC(C)C(NC(=O)c1c(F)cccc1F)C(=O)NCC(c1ccccc1)N(C)C (stereo unspecified) | inconclusive: 0.0041 µM [falling, full curve, poor fit] |  |
| Oc1ccc(Br)cc1C1C=C(c2ccc3c(c2)OCO3)NC(c2ccc(Br)cc2)N1 (stereo unspecified) |  | inactive: 5.61% |
| CCCCCCCCOC1OC(CO)C(O)C(O)C1NC(C)=O (stereo unspecified) | inconclusive: 10.3 µM [activator, partial curve] |  |
| Cc1ccc(-n2c(SCC(=O)O)nc3sc4c(c3c2=O)C(C)CCC4)cc1 (stereo unspecified) | inconclusive: 8.2 µM [falling, partial curve, poor fit] |  |
| COc1ccc2cc(-c3ccsc3)ncc2c1 | inconclusive: 4.11 µM [activator, partial curve] |  |
| NC(=S)NN=C1CCSCC1 |  | inactive: -5.57% |
| CNC(=O)C1CCC(Cn2c(=O)c3sccc3n(CC(=O)N3CCCC(C)C3)c2=O)CC1 (stereo unspecified) | inconclusive: 1.64 µM [activator, full curve, poor fit] |  |
| COc1cc(NC(=O)c2ccc3c(c2)OCCO3)ccc1NC(=O)c1ccccc1Cl | inconclusive: 20.6 µM [falling, partial curve] |  |
| CC(C)CC(OC(=O)CNC(=O)c1ccccc1)C(=O)Nc1cc(C(F)(F)F)ccc1Cl (stereo unspecified) |  | inactive: -2.85% |
| COc1cc(-c2nc(SCC(=O)Nc3ccc4c(c3)OCO4)c(-c3ccccc3)[nH]2)cc(OC)c1OC |  | inactive: 0.439% |

A different layout for part of the listing above:
Structure (SMILES)	Potency	activity change, negative = inhibition
Cc1ccc(-n2c(-c3ccc(Br)cc3)c[n+]3c2CCc2ccc4cccnc4c2-3)cc1	active: 2.91 µM	
COc1ccc(-c2[nH]nc3nc(-c4cc(Br)ccc4OC)cc(C(=O)O)c23)cc1	inconclusive: 20.6 µM [activator, partial curve]	
